# Data as given in PubChem BioAssay AID1508597 (Cure First, 2020)
# Assay: 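Knock-downs altering ovarian cancer cell survival with or without PARP inhibitor rucaparib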 (primary screen)
# Cell system: human ovarian carcinoma lines grown from tumours: OCI-P5x (papillary serous) and OCI-C5x (clear cell)
# Reagent: siRNA pool against human genes, 1.25 pmol siRNA per well
# Timing: 72 h or 96 h, depending on the cell culture
# Treatment: rucaparib 20 µM (about IC30) or vehicle, present until read-out
# Detection: 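Luminescent ATP-based viability assay read 72 or 96 h after transfection, depending on culture, given as normalised percent viability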
# Direction: viability, normalised: higher = more viable cells remaining
# Active means: 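Active when normalised viability falls below 80 percent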
# Meaning of the calls: active = viability under 80%; inactive = viability 80% or more
# The deposit covers about 2,100 reagents; below is an unselected part. 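Calls flag viability under 80% in either arm, not effects specific to rucaparib; the reference for percent is not stated.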 Unmarked entries are inactive. A reagent listed more than once was tested more than once; the source does not tell the runs apart. Not stated in the record: the 100% reference.
target,rucaparib or vehicle,cell line,technical replicate,"viability, normalised (%)"
SETMAR,Rucaparib,OCI-C5x (clear cell),1,69.8 (active)
SETMAR,Rucaparib,OCI-C5x (clear cell),1,40.4 (active)
SETMAR,Rucaparib,OCI-C5x (clear cell),2,40.4 (active)
SETMAR,Rucaparib,OCI-C5x (clear cell),2,71 (active)
SETMAR,Rucaparib,OCI-C5x (clear cell),3,72.7 (active)
SETMAR,Rucaparib,OCI-C5x (clear cell),3,33.9 (active)
SETMAR,Rucaparib,OCI-P5x (serous),1,51.7 (active)
SETMAR,Rucaparib,OCI-P5x (serous),1,125
SETMAR,Rucaparib,OCI-P5x (serous),2,144
SETMAR,Rucaparib,OCI-P5x (serous),2,69.2 (active)
SETMAR,Rucaparib,OCI-P5x (serous),3,123
SETMAR,Rucaparib,OCI-P5x (serous),3,59.5 (active)
SETMAR,Vehicle,OCI-C5x (clear cell),1,58.4 (active)
SETMAR,Vehicle,OCI-C5x (clear cell),1,66.3 (active)
SETMAR,Vehicle,OCI-C5x (clear cell),2,63.5 (active)
SETMAR,Vehicle,OCI-C5x (clear cell),2,37.5 (active)
SETMAR,Vehicle,OCI-C5x (clear cell),3,56.7 (active)
SETMAR,Vehicle,OCI-C5x (clear cell),3,41.2 (active)
SETMAR,Vehicle,OCI-P5x (serous),1,78.9 (active)
SETMAR,Vehicle,OCI-P5x (serous),1,61.9 (active)
SETMAR,Vehicle,OCI-P5x (serous),2,84.7
SETMAR,Vehicle,OCI-P5x (serous),2,73 (active)
SETMAR,Vehicle,OCI-P5x (serous),3,103
SETMAR,Vehicle,OCI-P5x (serous),3,104

4 of these entries in another layout:
| target | rucaparib or vehicle | cell line | technical replicate | viability, normalised (%) |
| --- | --- | --- | --- | --- |
| SETMAR | Rucaparib | OCI-P5x (serous) | 3 | 59.5 (active) |
| SETMAR | Vehicle | OCI-C5x (clear cell) | 1 | 58.4 (active) |
| SETMAR | Vehicle | OCI-C5x (clear cell) | 1 | 66.3 (active) |
| SETMAR | Vehicle | OCI-C5x (clear cell) | 2 | 63.5 (active) |

The results go on.
target,rucaparib or vehicle,cell line,technical replicate,"viability, normalised (%)"
HJURP,Rucaparib,OCI-C5x (clear cell),1,78.2 (active)
HJURP,Rucaparib,OCI-C5x (clear cell),2,42.3 (active)
HJURP,Rucaparib,OCI-C5x (clear cell),3,51 (active)
HJURP,Rucaparib,OCI-P5x (serous),1,66.5 (active)
HJURP,Rucaparib,OCI-P5x (serous),2,74.7 (active)
HJURP,Rucaparib,OCI-P5x (serous),3,85.9
HJURP,Vehicle,OCI-C5x (clear cell),1,54.3 (active)
HJURP,Vehicle,OCI-C5x (clear cell),2,47.6 (active)
HJURP,Vehicle,OCI-C5x (clear cell),3,58.7 (active)
HJURP,Vehicle,OCI-P5x (serous),1,81.8
HJURP,Vehicle,OCI-P5x (serous),2,101
HJURP,Vehicle,OCI-P5x (serous),3,132
CNOT12,Rucaparib,OCI-C5x (clear cell),1,48.3 (active)
CNOT12,Rucaparib,OCI-C5x (clear cell),2,50.1 (active)
CNOT12,Rucaparib,OCI-C5x (clear cell),3,33.7 (active)
CNOT12,Rucaparib,OCI-P5x (serous),1,49 (active)
CNOT12,Rucaparib,OCI-P5x (serous),2,48.1 (active)
CNOT12,Rucaparib,OCI-P5x (serous),3,42 (active)
CNOT12,Vehicle,OCI-C5x (clear cell),1,41.2 (active)
CNOT12,Vehicle,OCI-C5x (clear cell),2,29 (active)
CNOT12,Vehicle,OCI-C5x (clear cell),3,32.1 (active)
CNOT12,Vehicle,OCI-P5x (serous),1,34.2 (active)
CNOT12,Vehicle,OCI-P5x (serous),2,47.4 (active)
CNOT12,Vehicle,OCI-P5x (serous),3,51.3 (active)
EPAS1,Rucaparib,OCI-C5x (clear cell),1,64.7 (active)
EPAS1,Rucaparib,OCI-C5x (clear cell),2,39.6 (active)
EPAS1,Rucaparib,OCI-C5x (clear cell),3,50.2 (active)
EPAS1,Rucaparib,OCI-P5x (serous),1,62.6 (active)
EPAS1,Rucaparib,OCI-P5x (serous),2,61.2 (active)
EPAS1,Rucaparib,OCI-P5x (serous),3,77.9 (active)
EPAS1,Vehicle,OCI-C5x (clear cell),1,55.6 (active)
EPAS1,Vehicle,OCI-C5x (clear cell),2,46.5 (active)
EPAS1,Vehicle,OCI-C5x (clear cell),3,53.5 (active)
EPAS1,Vehicle,OCI-P5x (serous),1,70.1 (active)
EPAS1,Vehicle,OCI-P5x (serous),2,74.8 (active)
EPAS1,Vehicle,OCI-P5x (serous),3,72.4 (active)
